From the supplement of paper PMC10849652
The other results are listed elsewhere or left out.

Amino acid sequences for entries named in this document (tags omitted). A change or cut given only in a name is not applied to a line headed by its entry.
UniProt P47985: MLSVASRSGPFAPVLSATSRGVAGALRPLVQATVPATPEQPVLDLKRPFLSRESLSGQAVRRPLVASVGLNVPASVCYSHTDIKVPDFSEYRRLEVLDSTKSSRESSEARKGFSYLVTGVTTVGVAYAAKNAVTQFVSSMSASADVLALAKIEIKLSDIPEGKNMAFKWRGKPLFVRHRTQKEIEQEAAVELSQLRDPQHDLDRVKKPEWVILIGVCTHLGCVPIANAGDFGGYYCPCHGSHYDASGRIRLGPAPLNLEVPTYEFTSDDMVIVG
UniProt Q9Y3C8: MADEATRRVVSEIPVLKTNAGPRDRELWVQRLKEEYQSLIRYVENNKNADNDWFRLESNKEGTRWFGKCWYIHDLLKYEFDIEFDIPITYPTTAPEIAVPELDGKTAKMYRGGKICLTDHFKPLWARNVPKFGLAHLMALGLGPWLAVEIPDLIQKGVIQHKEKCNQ
UniProt Q9BRT2: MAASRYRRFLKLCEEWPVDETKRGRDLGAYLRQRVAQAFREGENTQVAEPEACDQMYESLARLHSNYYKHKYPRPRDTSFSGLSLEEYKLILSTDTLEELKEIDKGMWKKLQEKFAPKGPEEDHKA
UniProt Q93008, whole entry, looked up: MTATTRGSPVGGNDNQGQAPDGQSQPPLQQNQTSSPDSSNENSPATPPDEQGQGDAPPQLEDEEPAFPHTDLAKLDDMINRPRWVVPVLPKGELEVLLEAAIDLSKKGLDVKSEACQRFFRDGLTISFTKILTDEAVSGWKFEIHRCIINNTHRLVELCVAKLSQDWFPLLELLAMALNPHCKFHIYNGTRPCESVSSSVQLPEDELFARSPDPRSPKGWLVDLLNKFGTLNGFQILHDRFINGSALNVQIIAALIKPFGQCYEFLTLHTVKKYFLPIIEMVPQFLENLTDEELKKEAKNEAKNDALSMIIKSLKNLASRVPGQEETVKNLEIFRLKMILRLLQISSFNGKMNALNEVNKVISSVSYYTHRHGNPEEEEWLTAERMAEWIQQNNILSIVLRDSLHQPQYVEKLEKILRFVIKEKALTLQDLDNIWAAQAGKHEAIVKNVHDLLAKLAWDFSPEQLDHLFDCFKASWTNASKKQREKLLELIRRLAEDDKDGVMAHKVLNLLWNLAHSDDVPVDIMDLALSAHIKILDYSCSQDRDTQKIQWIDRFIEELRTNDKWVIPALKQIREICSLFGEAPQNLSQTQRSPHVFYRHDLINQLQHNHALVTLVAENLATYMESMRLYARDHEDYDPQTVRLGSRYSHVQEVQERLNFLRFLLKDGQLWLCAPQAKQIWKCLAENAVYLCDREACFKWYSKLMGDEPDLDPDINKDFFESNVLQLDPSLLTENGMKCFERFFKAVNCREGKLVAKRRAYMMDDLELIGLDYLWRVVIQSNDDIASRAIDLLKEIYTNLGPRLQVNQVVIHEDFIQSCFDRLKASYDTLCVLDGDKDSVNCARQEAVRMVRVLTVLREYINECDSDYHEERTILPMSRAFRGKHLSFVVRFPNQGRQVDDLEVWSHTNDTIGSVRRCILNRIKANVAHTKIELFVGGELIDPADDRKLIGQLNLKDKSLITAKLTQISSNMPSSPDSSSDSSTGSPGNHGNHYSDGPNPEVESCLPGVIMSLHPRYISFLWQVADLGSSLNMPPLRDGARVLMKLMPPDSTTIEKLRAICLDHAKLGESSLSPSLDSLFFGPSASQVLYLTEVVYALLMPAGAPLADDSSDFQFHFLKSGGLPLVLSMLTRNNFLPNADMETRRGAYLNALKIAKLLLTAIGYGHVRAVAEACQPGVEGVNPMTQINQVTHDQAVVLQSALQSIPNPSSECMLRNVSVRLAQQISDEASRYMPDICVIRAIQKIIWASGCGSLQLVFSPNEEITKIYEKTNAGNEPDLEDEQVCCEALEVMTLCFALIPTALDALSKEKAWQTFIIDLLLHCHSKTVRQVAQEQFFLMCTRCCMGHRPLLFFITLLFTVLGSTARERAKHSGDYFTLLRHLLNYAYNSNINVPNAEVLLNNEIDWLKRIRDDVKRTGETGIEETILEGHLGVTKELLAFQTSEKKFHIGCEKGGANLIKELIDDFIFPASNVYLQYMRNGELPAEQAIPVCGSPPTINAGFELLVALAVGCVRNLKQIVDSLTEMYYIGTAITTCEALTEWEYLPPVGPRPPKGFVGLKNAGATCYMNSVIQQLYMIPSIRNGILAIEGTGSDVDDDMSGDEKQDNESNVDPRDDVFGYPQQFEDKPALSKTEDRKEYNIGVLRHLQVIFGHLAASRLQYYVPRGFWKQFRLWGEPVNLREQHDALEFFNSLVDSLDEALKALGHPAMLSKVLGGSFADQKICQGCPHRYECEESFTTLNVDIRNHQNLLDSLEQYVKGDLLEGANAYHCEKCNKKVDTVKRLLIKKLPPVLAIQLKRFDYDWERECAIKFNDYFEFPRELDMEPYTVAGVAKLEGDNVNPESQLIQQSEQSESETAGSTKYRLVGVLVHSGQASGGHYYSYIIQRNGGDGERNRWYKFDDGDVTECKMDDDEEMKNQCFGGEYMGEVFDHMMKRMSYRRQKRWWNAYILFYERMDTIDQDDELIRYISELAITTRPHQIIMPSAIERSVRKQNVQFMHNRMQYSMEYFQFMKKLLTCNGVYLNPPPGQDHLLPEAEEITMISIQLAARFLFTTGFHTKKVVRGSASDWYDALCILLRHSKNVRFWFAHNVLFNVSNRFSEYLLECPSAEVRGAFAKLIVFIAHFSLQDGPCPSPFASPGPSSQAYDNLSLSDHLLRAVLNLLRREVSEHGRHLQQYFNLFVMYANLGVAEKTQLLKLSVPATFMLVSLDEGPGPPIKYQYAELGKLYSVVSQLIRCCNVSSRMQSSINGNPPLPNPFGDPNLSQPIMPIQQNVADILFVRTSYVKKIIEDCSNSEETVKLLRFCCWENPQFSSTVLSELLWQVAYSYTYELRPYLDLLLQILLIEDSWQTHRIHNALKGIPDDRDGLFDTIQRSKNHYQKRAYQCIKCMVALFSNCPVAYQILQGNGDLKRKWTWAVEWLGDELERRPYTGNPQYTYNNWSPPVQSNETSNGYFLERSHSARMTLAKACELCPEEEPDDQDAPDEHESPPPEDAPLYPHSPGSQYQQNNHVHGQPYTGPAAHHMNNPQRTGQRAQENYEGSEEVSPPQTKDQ
UniProt P22415: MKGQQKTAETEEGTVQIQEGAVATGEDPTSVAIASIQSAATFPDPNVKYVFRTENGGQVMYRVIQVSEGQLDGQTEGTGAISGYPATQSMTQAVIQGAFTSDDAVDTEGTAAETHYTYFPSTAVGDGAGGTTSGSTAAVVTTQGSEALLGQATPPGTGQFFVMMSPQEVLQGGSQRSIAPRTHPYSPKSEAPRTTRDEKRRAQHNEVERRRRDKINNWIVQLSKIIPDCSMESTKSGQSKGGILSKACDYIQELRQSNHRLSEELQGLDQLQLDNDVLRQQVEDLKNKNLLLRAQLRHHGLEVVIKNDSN
UniProt Q9Y6I4: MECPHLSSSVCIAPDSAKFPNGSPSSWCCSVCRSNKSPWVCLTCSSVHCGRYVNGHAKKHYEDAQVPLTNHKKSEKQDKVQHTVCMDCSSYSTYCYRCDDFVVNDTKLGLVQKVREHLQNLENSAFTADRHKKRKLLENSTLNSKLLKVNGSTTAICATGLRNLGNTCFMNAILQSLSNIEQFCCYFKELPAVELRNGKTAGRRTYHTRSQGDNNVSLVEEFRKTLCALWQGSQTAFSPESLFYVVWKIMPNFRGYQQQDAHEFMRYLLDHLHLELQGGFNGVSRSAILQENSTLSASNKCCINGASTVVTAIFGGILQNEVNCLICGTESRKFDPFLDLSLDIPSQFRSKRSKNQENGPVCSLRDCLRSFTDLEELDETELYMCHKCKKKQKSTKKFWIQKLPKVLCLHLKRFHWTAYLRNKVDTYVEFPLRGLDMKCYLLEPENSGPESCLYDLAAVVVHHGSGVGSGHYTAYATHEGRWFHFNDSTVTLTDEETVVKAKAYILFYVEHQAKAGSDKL
UniProt Q96S82: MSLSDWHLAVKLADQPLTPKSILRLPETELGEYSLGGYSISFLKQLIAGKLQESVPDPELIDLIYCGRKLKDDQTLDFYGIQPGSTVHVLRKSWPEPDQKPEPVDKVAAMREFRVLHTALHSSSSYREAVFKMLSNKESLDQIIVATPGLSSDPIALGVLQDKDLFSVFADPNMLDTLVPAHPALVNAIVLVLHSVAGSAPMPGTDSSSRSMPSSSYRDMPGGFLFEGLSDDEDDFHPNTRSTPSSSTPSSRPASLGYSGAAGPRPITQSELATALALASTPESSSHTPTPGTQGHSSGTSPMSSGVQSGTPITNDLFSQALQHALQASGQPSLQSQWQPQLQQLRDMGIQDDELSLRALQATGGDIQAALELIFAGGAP
UniProt Q9P0L0: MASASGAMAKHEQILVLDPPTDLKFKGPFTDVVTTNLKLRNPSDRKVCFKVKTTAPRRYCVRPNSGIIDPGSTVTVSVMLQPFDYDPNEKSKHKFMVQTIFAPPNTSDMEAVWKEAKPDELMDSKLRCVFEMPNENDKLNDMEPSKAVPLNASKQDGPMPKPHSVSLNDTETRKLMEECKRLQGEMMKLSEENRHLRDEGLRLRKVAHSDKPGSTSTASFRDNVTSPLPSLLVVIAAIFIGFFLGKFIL
UniProt Q9NYU2: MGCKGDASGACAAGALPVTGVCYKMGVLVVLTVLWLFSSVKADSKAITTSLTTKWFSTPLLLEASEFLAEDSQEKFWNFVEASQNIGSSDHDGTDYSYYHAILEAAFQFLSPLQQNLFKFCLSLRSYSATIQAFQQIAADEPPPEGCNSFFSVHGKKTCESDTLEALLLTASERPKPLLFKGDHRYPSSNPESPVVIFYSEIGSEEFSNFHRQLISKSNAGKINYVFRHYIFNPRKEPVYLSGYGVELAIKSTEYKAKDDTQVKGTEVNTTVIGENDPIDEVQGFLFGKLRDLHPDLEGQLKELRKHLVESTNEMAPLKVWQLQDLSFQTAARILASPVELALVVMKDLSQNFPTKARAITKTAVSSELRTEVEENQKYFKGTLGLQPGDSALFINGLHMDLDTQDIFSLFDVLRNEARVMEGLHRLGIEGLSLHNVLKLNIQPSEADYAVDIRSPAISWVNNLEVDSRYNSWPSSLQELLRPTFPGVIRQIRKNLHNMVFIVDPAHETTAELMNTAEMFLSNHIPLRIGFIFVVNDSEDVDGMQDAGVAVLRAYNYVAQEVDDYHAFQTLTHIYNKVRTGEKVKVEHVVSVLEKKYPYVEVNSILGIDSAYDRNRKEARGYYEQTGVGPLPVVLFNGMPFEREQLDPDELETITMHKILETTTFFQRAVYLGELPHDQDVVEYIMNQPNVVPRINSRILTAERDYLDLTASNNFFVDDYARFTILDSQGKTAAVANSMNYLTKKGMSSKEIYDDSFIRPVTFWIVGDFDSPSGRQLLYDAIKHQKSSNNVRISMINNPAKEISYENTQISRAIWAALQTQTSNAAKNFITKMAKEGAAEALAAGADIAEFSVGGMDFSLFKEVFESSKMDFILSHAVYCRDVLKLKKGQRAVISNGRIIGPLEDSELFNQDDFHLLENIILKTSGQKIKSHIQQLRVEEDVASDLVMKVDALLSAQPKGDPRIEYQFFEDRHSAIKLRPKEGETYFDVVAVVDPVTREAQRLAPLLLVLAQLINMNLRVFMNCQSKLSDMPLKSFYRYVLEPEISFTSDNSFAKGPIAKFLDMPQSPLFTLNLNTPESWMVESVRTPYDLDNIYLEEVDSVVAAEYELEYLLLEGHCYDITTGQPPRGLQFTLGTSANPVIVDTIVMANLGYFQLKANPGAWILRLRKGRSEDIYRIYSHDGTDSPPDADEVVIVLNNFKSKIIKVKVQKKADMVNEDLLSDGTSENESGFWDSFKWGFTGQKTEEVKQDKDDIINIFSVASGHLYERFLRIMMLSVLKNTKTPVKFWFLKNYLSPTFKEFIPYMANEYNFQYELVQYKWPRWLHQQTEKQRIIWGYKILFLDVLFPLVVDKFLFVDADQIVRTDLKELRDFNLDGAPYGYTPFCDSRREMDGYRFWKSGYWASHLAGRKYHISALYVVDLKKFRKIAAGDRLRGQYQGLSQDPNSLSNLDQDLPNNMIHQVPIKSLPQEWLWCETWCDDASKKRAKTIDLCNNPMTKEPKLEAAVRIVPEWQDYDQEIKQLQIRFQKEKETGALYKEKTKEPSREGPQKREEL
UniProt Q9NZ43: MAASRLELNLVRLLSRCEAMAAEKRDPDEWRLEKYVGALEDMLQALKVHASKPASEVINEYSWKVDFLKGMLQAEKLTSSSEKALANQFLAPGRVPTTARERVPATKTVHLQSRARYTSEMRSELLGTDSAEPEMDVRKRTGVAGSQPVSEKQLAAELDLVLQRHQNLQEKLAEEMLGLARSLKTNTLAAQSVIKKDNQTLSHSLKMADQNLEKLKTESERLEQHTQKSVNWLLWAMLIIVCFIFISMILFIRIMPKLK

What was measured:
Experiment in all cases: log2 fold change, soluble protein after heating vs DMSO (PISA); higher = thermal stabilisation; K562 cells, 10 uM, 30 min; active = over 0.2 and 3.5 SD of the protein, either way, in both replicates (recomputed)
[1] = compound: CC1=C(C=C(C=C1)NC(=O)C2=CC(=CC=C2)C(C)(C)C#N)NC3=CC4=C(C=C3)N=CN(C4=O)C
In short: (§1)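 Thermal stability values are relative to control samples and come from duplicates. They are expressed as log2 fold changes. For measurement, K562 cells (2×10^6 cells/mL) received 10 μM compound for 30 min, and aliquots were heated for 3 min over 48°C-58°C, pooled, and extracted at 4°C in PBS with 0.5% NP-40. Soluble protein, the supernatant after 21,000xg for 90 min, was quantified by TMTpro 16plex LC-MS/MS with equalised channel sums.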

[2] = compound: CC1=C(C=C(C=C1)NC(=O)C2=CC(=CC=C2)N(C)C)NC(=O)C3=CC=C(C=C3)O
In short: as §1

[3] = compound: CC1=CC=C(C=C1)SC2=C3C=C(SC3=CN=C2)C(=O)N
In short: as §1

[4] = compound: CC1=NC(=CC=C1)C2=C(N=C(N2)C(C)(C)C)C3=CC4=NC=CN=C4C=C3
In short: as §1

Nexturastat A = compound: CCCCN(Cc1ccc(C(=O)NO)cc1)C(=O)Nc1ccccc1 [Nexturastat A]
In short: as §1

vemurafenib = compound: CCCS(=O)(=O)Nc1ccc(F)c(C(=O)c2c[nH]c3ncc(-c4ccc(Cl)cc4)cc23)c1F [vemurafenib]
In short: as §1

[5] = compound: CCCS(=O)(=O)Nc1ccc(F)c(C(=O)c2c[nH]c3ncc(Cl)cc23)c1F
In short: as §1

[6] = compound: CCCc1cc(C)[nH]c(=O)c1CNC(=O)c1cc(-c2ccnc(N3CCN(C)CC3)c2)cc2c1cnn2C(C)C
In short: as §1

givinostat = compound: CCN(CC)Cc1ccc2cc(COC(=O)Nc3ccc(C(=O)NO)cc3)ccc2c1 [givinostat]
In short: as §1

barasertib = compound: CCN(CCCOc1ccc2c(Nc3cc(CC(=O)Nc4cccc(F)c4)[nH]n3)ncnc2c1)CCOP(=O)(O)O [barasertib]
In short: as §1

Measured: log2 fold change

USP25 isoform 3 (UniProt Q9UHP3)
inactive: [1] 0.004 | [2] 0.008 | [3] -0.009 | [4] 0.045 | Nexturastat A -0.029 | vemurafenib 0.04 | [5] 0.027 | [6] 0.024 | givinostat 0.015 | barasertib 0.02

UQCRFS1 (UniProt P47985)
inactive: [1] 0.04 | [2] -0.012 | [3] 0.007 | [4] 0.027 | Nexturastat A -0.105 | vemurafenib 0.006 | [5] -0.041 | [6] 0.174 | givinostat -0.017 | barasertib -0.017

UFC1 (UniProt Q9Y3C8)
inactive: [1] 0.004 | [2] -0.013 | [3] 0.036 | [4] -0.015 | Nexturastat A -0.057 | vemurafenib -0.021 | [5] -0.038 | [6] 0.147 | givinostat -0.07 | barasertib 0.011

UBR2 (UniProt Q8IWV8)
inactive: [1] 0.079 | [2] -0.08 | [3] 0.048 | [4] -0.03 | Nexturastat A 0.078 | vemurafenib 0.029 | [5] 0.037 | [6] -0.038 | givinostat 0.192 | barasertib 0.046

VAMP7 (UniProt P51809)
inactive: [1] -0.014 | [2] 0.011 | [3] 0.053 | [4] 0.005 | Nexturastat A -0.069 | vemurafenib 0.022 | [5] -0.01 | [6] -0.016 | givinostat 0.011 | barasertib 0.017

UBR4 isoform 2 (UniProt Q5T4S7)
inactive: [1] -0.001 | [2] -0.04 | [3] -0.04 | [4] -0.009 | Nexturastat A 0.15 | vemurafenib -0.022 | [5] 0.019 | [6] 0.051 | givinostat 0.016 | barasertib 0.014

UQCC2 (UniProt Q9BRT2)
inactive: [1] 0.01 | [2] 0.003 | [3] 0.089 | [4] 0.074 | Nexturastat A -0.044 | vemurafenib 0.125 | [5] -0.027 | [6] 0.08 | givinostat -0.001 | barasertib 0.024

UROS (UniProt P10746)
inactive: [1] -0.01 | [2] -0.036 | [3] 0.048 | [4] -0.081 | Nexturastat A -0.109 | vemurafenib -0.005 | [5] 0.032 | [6] 0.129 | givinostat -0.034 | barasertib -0.005

USP9X (UniProt Q93008)
inactive: [1] -0.015 | [2] -0.02 | [3] -0.009 | [4] 0.023 | Nexturastat A 0.015 | vemurafenib 0.019 | [5] 0.075 | [6] 0.007 | givinostat 0.025 | barasertib 0.043

USF1 (UniProt P22415)
inactive: [1] -0.012 | [2] -0.048 | [3] 0.013 | [4] -0.047 | Nexturastat A -0.118 | vemurafenib -0.032 | [5] 0.015 | [6] 0.026 | givinostat -0.03 | barasertib 0.294

UTP15 (UniProt Q8TED0)
inactive: [1] -0.063 | [2] 0 | [3] -0.05 | [4] -0.113 | Nexturastat A 0.23 | vemurafenib -0.128 | [5] -0.023 | [6] 0.085 | givinostat -0.027 | barasertib -0.141

UBE3D (UniProt Q7Z6J8)
inactive: [1] -0.036 | [2] 0.036 | [3] -0.049 | [4] 0.01 | Nexturastat A -0.016 | vemurafenib 0.014 | [5] 0.04 | [6] 0.006 | givinostat -0.075 | barasertib 0.018

USP3 (UniProt Q9Y6I4)
inactive: [1] 0.026 | [2] -0.016 | [3] 0.085 | [4] 0.069 | Nexturastat A 0.01 | vemurafenib 0.112 | [5] 0.192 | [6] -0.069 | givinostat -0.022 | barasertib 0.067

UBL7 (UniProt Q96S82)
inactive: [1] -0.037 | [2] -0.029 | [3] -0.019 | [4] 0.086 | Nexturastat A -0.128 | vemurafenib 0.122 | [5] 0.076 | [6] -0.071 | givinostat 0.012 | barasertib 0.09

VAPA (UniProt Q9P0L0)
inactive: [1] -0.013 | [2] -0.059 | [3] 0.01 | [4] 0.026 | Nexturastat A -0.162 | vemurafenib -0.003 | [5] -0.014 | [6] -0.029 | givinostat -0.072 | barasertib -0.003

UGGT1 (UniProt Q9NYU2)
inactive: [1] -0.001 | [2] 0.004 | [3] 0.001 | [4] -0.018 | Nexturastat A 0.014 | vemurafenib 0 | [5] 0.003 | [6] 0.024 | givinostat 0.02 | barasertib 0

Random excerpt: 2 records from the list
UGGT1 (UniProt Q9NYU2)
inactive: [1] -0.001 | [2] 0.004 | [3] 0.001 | [4] -0.018 | Nexturastat A 0.014 | vemurafenib 0 | [5] 0.003 | [6] 0.024 | givinostat 0.02 | barasertib 0

USP3 (UniProt Q9Y6I4)
inactive: [1] 0.026 | [2] -0.016 | [3] 0.085 | [4] 0.069 | Nexturastat A 0.01 | vemurafenib 0.112 | [5] 0.192 | [6] -0.069 | givinostat -0.022 | barasertib 0.067

The list goes on.

USF2 (UniProt Q15853)
inactive: [1] 0.053 | [2] 0.021 | [3] -0.081 | [4] -0.035 | Nexturastat A 0 | vemurafenib -0.178 | [5] 0.039 | [6] 0.063 | givinostat 0.042 | barasertib 0.006

UGT8 (UniProt Q16880)
inactive: [1] 0.289 | [2] -0.02 | [3] 0.021 | [4] -0.098 | Nexturastat A -0.042 | vemurafenib -0.039 | [5] -0.083 | [6] 0.211 | givinostat -0.053 | barasertib -0.129

USE1 (UniProt Q9NZ43)
inactive: [1] -0.011 | [2] -0.03 | [3] -0.005 | [4] -0.043 | Nexturastat A 0.115 | vemurafenib 0.006 | [5] 0.002 | [6] 0.018 | givinostat -0.005 | barasertib 0.013

UCHL5 isoform 3 (UniProt Q9Y5K5)
inactive: [1] -0.09 | [2] -0.145 | [3] 0.048 | [4] -0.213 | Nexturastat A 0.07 | vemurafenib -0.02 | [5] 0.243 | [6] 0.047 | givinostat 0.056 | barasertib 0.048

USF3 (UniProt Q68DE3)
inactive: [1] -0.113 | [2] 0.048 | [3] -0.378 | [4] -0.223 | Nexturastat A 0.196 | vemurafenib -0.02 | [5] -0.394 | [6] -0.445 | barasertib 0.073

URI1 isoform 4 (UniProt O94763)
inactive: [1] 0.134 | [2] -0.207 | [4] -0.075 | Nexturastat A -0.344 | vemurafenib -0.022 | givinostat -0.043 | barasertib -0.284

URGCP (UniProt Q8TCY9)
inactive: [1] -0.031 | [2] -0.002 | [3] 0.029 | [4] 0.097 | Nexturastat A -0.035 | vemurafenib -0.002 | [5] 0.006 | givinostat 0.009 | barasertib 0

UPF1 (UniProt Q92900)
inactive: [1] 0.003 | [2] 0.004 | [3] 0.025 | [4] 0.01 | Nexturastat A 0.009 | vemurafenib 0.023 | [5] 0.034 | [6] 0.009 | givinostat -0.021 | barasertib 0.026

UQCRC2 (UniProt P22695)
inactive: [1] -0.026 | [2] 0.016 | [3] 0.023 | [4] 0.032 | Nexturastat A -0.027 | vemurafenib 0.025 | [5] 0.03 | [6] 0.002 | givinostat 0.008 | barasertib -0.009

UNC93B1 (UniProt Q9H1C4)
inactive: [1] 0.226 | [2] 0.003 | [3] -0.082 | [4] -0.035 | Nexturastat A -0.094 | [5] 0.091 | [6] -0.096 | givinostat 0.015 | barasertib -0.01

ULK3 isoform 4 (UniProt Q6PHR2)
inactive: [1] 0.109 | [2] 0.223 | [3] 0.021 | [4] -0.074 | Nexturastat A -0.048 | [5] 0.097 | barasertib 0.107

USP13 (UniProt Q92995)
inactive: [1] 0.043 | [2] -0.029 | [3] 0.112 | [4] 0.022 | vemurafenib 0.02 | [5] 0.259 | [6] -0.045 | givinostat 0.038 | barasertib 0.042

UCHL5 (UniProt Q9Y5K5)
inactive: [1] 0.014 | [2] -0.07 | [3] 0.019 | [4] 0.053 | Nexturastat A 0.048 | vemurafenib 0.075 | [5] 0.08 | [6] 0.003 | givinostat 0.057 | barasertib 0.024
